From paper PMC6890647
Numbering of substitutions follows the chain as printed. In names and notes the source's numbering stands. No constants are given. Whether binding was seen depends on the method and setting. For part of these data: In cells and extracts the contact can be indirect. Some binding calls cover weakened binding; strength is not graded here. For part of these data: Where a sequence is shown, tags or fusion partners need not be part of it.

Protein sequences, listed by entry. Tags and fused reporters are not part of them. Lines headed by an entry give the natural chain unless they say otherwise; changes in a name come on top.
UniProt P09874: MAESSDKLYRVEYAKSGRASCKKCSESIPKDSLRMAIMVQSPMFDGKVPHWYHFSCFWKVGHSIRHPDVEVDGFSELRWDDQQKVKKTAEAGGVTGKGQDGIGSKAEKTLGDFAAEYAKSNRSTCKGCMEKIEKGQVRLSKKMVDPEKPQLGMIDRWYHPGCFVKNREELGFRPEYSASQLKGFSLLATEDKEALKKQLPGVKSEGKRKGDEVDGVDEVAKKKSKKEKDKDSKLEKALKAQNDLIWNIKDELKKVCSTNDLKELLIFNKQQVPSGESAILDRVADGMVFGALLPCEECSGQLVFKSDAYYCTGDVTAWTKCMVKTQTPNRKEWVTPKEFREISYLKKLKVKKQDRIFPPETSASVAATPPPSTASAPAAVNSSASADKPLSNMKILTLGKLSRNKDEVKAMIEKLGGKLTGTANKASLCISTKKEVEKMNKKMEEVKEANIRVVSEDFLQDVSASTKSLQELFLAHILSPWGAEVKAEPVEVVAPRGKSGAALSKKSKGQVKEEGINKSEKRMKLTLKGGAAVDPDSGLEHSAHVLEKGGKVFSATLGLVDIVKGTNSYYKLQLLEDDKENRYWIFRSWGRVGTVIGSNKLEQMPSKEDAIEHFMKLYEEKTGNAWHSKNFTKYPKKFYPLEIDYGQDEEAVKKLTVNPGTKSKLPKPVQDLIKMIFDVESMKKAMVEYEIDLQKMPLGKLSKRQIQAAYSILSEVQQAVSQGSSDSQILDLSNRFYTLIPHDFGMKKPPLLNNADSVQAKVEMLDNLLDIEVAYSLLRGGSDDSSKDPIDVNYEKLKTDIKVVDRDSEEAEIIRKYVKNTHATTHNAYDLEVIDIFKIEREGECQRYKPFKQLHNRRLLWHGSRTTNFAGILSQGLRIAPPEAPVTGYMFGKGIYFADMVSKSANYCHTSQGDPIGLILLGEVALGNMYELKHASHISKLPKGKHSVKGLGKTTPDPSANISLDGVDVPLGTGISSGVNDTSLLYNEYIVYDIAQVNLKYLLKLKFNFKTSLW

Assays:
[1] = target: T1, Flag-Banf1 (barrier-to-autointegration factor 1), wild type (human) (UniProt O75531); assay: co-IP; Flag immunoprecipitation from HEK293T cells expressing Flag-tagged Banf1 or PARP1 proteins, untreated or 1 h after H2O2 removal; lysates sonicated and digested with nuclease; lysis buffer 20 mM HEPES pH 7.5, 250 mM KCl, 0.5% Triton X-100; 4 °C; immunoblot
T1 sequence: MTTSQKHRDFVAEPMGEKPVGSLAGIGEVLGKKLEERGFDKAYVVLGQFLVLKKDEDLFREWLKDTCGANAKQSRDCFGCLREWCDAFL

[2] = target: T2, Flag-Banf1 A12T (human) (UniProt O75531); assay: as above
T2 sequence: T1 sequence with A12T

[3] = target: T3, Flag-Banf1 D9A (human) (UniProt O75531); assay: as above
T3 sequence: T1 sequence with D9A

[4] = target: purified wild type PARP1 recombinant protein (UniProt P09874); assay: co-IP; 500 ng purified PARP1 incubated with 100 ng purified Banf1 for 5 min at room temperature in 50 mM Tris-HCl pH 7.8, 10 mM MgCl2, 1 mM DTT, ± NAD+/DNA/olaparib; immunoprecipitation with PARP1 antibodies, immunoblot; both purified
[5] = target: Flag-PARP1 E988K (human) (UniProt P09874); assay: co-IP; in cells, catalytically inactive PARP1 E988K or PARP1 inhibitors; details in Supplementary Fig. 2d-f, not shown
[6] = target: poly [ADP-ribose] polymerase 1 (PARP1), endogenous (human (endogenous in HEK293T and human skin fibroblasts)) (UniProt P09874); assay: co-IP; endogenous proteins in 293T cells and human skin fibroblasts, with or without H2O2; lysates digested with nuclease; immunoblot
[7] = target: Myc-DDK-tagged human PARP1 (Flag-PARP1), wild type (human) (UniProt P09874); assay: co-IP; Flag immunoprecipitation from HEK293T cells expressing Flag-tagged Banf1 or PARP1 proteins, untreated or 1 h after H2O2 removal; lysates sonicated and digested with nuclease; lysis buffer 20 mM HEPES pH 7.5, 250 mM KCl, 0.5% Triton X-100; 4 °C; immunoblot
[8] = target: purified PARP1 E988K recombinant protein (UniProt P09874); assay: co-IP; 500 ng purified PARP1 incubated with 100 ng purified Banf1 for 5 min at room temperature in 50 mM Tris-HCl pH 7.8, 10 mM MgCl2, 1 mM DTT, ± NAD+/DNA/olaparib; immunoprecipitation with PARP1 antibodies, immunoblot; both purified

With “poly [ADP-ribose] polymerase 1 (PARP1), endogenous (from UniProt P09874 1-1014) (enzyme)” the binding [1] was “binds”, the binding [2] was “binds” and the binding [3] was “binds”.

B1: HexaHis-tagged Banf1 A12T, purified (protein, UniProt O75531 1-89)
chain: T1 sequence with A12T
In the case of B1, the binding [4] is reported as “binds”.

B2: Barrier-to-autointegration factor 1 (Banf1), endogenous (protein, UniProt O75531 1-89)
chain: T1 sequence
B2 was tested, and the binding [5] was “binds”, the binding [6] was “binds” and the binding [7] was “binds”.

B3: HexaHis-tagged Banf1, wild type, purified (protein, UniProt O75531 1-89)
chain: T1 sequence
For B3, the binding [8] was “binds” and the binding [4] was “binds”.
